Assay results taken from patent publication US12059499B2, “Liposome loading” (PLUMB PHARMACEUTICALS, INC., priority 2015, dated 2024).
Where “and” joins values, the source holds several entries; their conditions need not be identical. Equal entries are not always repeated. Where two headings read alike, the source gives them in different places.

Tests used:
[1] = Incorporation of base salts into liposomes by solvent (alcohol) dilution; settings: for base content, solvent dilution: 2-propanol; for Pyridine Capture: lipid in 1-butanol, 60° C., 0.2M pyridinium sulfate
[2] = Base content of liposomes prepared by hydration of lyophilized lipid
[3] = Naltrexone loading into 2-propanol dilution liposomes using pyridinium salts; settings: pyridinium salt 0.4 M with respect to pyridine, citrate pH 7.0, 48 hours
[4] = Direct capture of drugs into liposomes by solvent dilution; settings: chloroquine diphosphate 200 mM in citrate pH 4.0, 1-propanol dilution, 58° C.
[5] = Loading of drug into liposomes containing a weak loading base (loading efficiency, spectrophotometric)
[6] = cited from earlier work; for incorporation efficiency: dehydration-rehydration vesicles
[7] = alcohol 2-propanol, 59 ° C., 0.2M sulfate salt, 250 + 250 microliters
[8] = alcohol Ethanol, 60 ° C., 0.2M sulfate salt, 250 + 250 microliters
[9] = alcohol Methanol, 59 ° C., 0.2M sulfate salt, 250 + 250 microliters
[10] = alcohol t-butanol, 62 ° C., 0.2M sulfate salt, 250 + 250 microliters
[11] = lipid in 1-propanol, sulfate salt, first volume 200, second volume 300 microliter
[12] = lipid in 1-propanol, sulfate salt, first volume 300, second volume 200 microliter
[13] = lipid in 1-propanol, sulfate salt, first volume 400, second volume 100 microliter
[14] = lipid in 1-propanol, sulfate salt, first volume 500, second volume 0 microliter
[15] = lipid in 1-propanol, sulfate salt, first volume 600, second volume 0 microliter
[16] = lipid in 1-propanol, sulfate salt, first volume 700, second volume 0 microliter
[17] = lipid in 1-propanol, sulfate salt, first volume 800, second volume 0 microliter
[18] = lipid in 2-butanol, sulfate salt, first volume 800, second volume 0 microliter
[19] = lipid in 2-butanol, sulfate salt, first volume 1000, second volume 0 microliter
[20] = lipid in 2-butanol, sulfate salt, first volume 1200, second volume 0 microliter
[21] = lipid in 2-propanol, 58° C., 0.2M sulfate salt, first volume 150, second volume 350 microliter
[22] = lipid in 2-propanol, 58° C., 0.2M sulfate salt, first volume 200, second volume 300 microliter
[23] = lipid in 2-propanol, 58° C., 0.2M sulfate salt, first volume 250, second volume 250 microliter
[24] = lipid in 2-propanol, 58° C., 0.2M sulfate salt, first volume 300, second volume 200 microliter
[25] = lipid in 2-propanol, 58° C., 0.2M sulfate salt, first volume 350, second volume 150 microliter
[26] = lipid in 2-propanol, 58° C., 0.2M sulfate salt, first volume 400, second volume 100 microliter
[27] = lipid in t-butanol, 62° C., 0.2M sulfate salt, first volume 200, second volume 300 microliter
[28] = lipid in t-butanol, 62° C., 0.2M sulfate salt, first volume 300, second volume 200 microliter
[29] = lipid in t-butanol, 62° C., 0.2M sulfate salt, first volume 400, second volume 100 microliter
[30] = lipid in t-butanol, 62° C., 0.2M sulfate salt, first volume 500, second volume 0 microliter
[31] = lipid in t-butanol, 62° C., 0.2M sulfate salt, first volume 600, second volume 0 microliter
[32] = lipid in t-butanol, 62° C., 0.2M sulfate salt, first volume 700, second volume 0 microliter
[33] = initial volume 300, second volume 200 microliter
[34] = initial volume 400, second volume 100 microliter
[35] = initial volume 600, second volume 0 microliter

For “2-methoxypyridinium sulfate [Example 2-MP]”, the Capture [1, 7] was 0.283 mol/mol phospholipid, the Capture [1, 8] was 0.0015 mol/mol phospholipid and the Capture [1, 9] was 0.007 mol/mol phospholipid. The Capture [1, 10] was 0.161 mol/mol phospholipid, the “base content, solvent dilution” value ([1]; base salt concentration 0.25M) was 0.35 mol/mol and the “base content, solvent dilution” value ([1]; base salt concentration 0.5M) was 0.58 mol/mol. For the same compound, the “base content, solvent dilution” value ([1]; base salt concentration 1.0M) was 1.81 mol/mol, the Capture [1, 11] was 0.21 mol/mol and the “Capture Efficiency” value [1, 11] was 7.64%. The Capture [1, 12] was 0.17 mol/mol, the “Capture Efficiency” value [1, 12] was 6.33% and the Capture [1, 13] was 0.17 mol/mol. The “Capture Efficiency” value [1, 13] was 6.24%, the Capture [1, 14] was 0.39 mol/mol and the “Capture Efficiency” value [1, 14] was 13.76%. The Capture [1, 15] was 0.47 mol/mol, the “Capture Efficiency” value [1, 15] was 13.65% and the Capture [1, 16] was 0.96 mol/mol. The “Capture Efficiency” value [1, 16] was 24.11%, the Capture [1, 17] was 0.56 mol/mol and the “Capture Efficiency” value [1, 17] was 12.33%. For the same compound, the Capture [1, 18] was 0.37 mol/mol, the “Capture Efficiency” value [1, 18] was 9.31% and the Capture [1, 19] was 0.54 mol/mol. For the same compound, the “Capture Efficiency” value [1, 19] was 10.77%, the Capture [1, 20] was 0.34 mol/mol and the “Capture Efficiency” value [1, 20] was 5.64%. For the same compound, the Capture [1, 21] was 0.067 mol/mol, the “Capture Efficiency” value [1, 21] was 2.68% and the Capture [1, 22] was 0.116 mol/mol. For the same compound, the “Capture Efficiency” value [1, 22] was 4.64%, the Capture [1, 23] was 0.265 mol/mol and the “Capture Efficiency” value [1, 23] was 10.6%. The Capture [1, 24] was 0.258 mol/mol, the “Capture Efficiency” value [1, 24] was 10.32% and the Capture [1, 25] was 0.433 mol/mol. For the same compound, the “Capture Efficiency” value [1, 25] was 17.32%, the Capture [1, 26] was 0.185 mol/mol and the “Capture Efficiency” value [1, 26] was 7.4%. The Capture [1, 27] was 0.118 mol/mol, the “Capture Efficiency” value [1, 27] was 4.72% and the Capture [1, 28] was 0.147 mol/mol. The “Capture Efficiency” value [1, 28] was 5.88%, the Capture [1, 29] was 0.207 mol/mol and the “Capture Efficiency” value [1, 29] was 8.28%. The Capture [1, 30] was 0.290 mol/mol, the “Capture Efficiency” value [1, 30] was 11.6% and the Capture [1, 31] was 0.373 mol/mol. For the same compound, the “Capture Efficiency” value [1, 31] was 12.43%, the Capture [1, 32] was 0.239 mol/mol and the “Capture Efficiency” value [1, 32] was 6.83%. The “base content, hydration of lyophilized lipid” value (“base content, hydration” for short) ([2]; base salt concentration 0.25M) was 0.075 ± 0.002 mol/mol, the “base content, hydration” value ([2]; base salt concentration 0.5M) was 0.158 ± 0.044 mol/mol and the “base content, hydration” value ([2]; base salt concentration 1.0M) was 0.885 ± 0.612 mol/mol.

With `COc1ccccn1.COc1ccccn1.O=S(=O)(O)CCCS(=O)(=O)O` [2-methoxypyridinium eprodisate] the “base content, solvent dilution” value ([1]; base salt concentration 0.2M) was 0.32 mol/mol, the “base content, solvent dilution” value ([1]; base salt concentration 0.25M) was 0.49 mol/mol and the “base content, hydration” value ([2]; base salt concentration 0.25M) was 0.079 mol/mol.

`C1=Cc2cccc(OC[C@H]3CNCCO3)c2C1.O=S(=O)(O)c1ccccc1` [Benzenesulfonate] gave a percent naltrexone loaded ([3]; Experiment 1) of 87.92% and a percent naltrexone loaded ([3]; Experiment 2) of 89.45%.

`Cl.c1ccncc1` [Chloride, pyridinium chloride] showed a percent naltrexone loaded ([3]; Experiment 1) of 88.24% and a percent naltrexone loaded ([3]; Experiment 2) of 89.74%.

`O=[N+]([O-])O` [Nitrate] gave a percent naltrexone loaded ([3]; Experiment 1) of 78.6% and a percent naltrexone loaded ([3]; Experiment 2) of 75.0%.

`CCN(CC)CCCC(C)Nc1ccnc2cc(Cl)ccc12` (centres unmarked) [chloroquine] showed a chloroquine capture [4, 33] of 0.373 mol/mol phospholipid, a chloroquine capture efficiency [4, 33] of 29.82% and a chloroquine capture [4, 34] of 0.496 mol/mol phospholipid. It also gave a chloroquine capture efficiency [4, 34] of 39.70%, a chloroquine capture ([4]; initial volume 500, second volume 0 microliter) of 0.706 mol/mol phospholipid and a chloroquine capture [4, 35] of 0.610 mol/mol phospholipid. The chloroquine capture efficiency [4, 35] was 48.79%, the “percent of chloroquine loaded” value ([5]; DPPC:cholesterol 2:1, 0.5M 2-methoxypyridinium eprodisate, sodium citrate pH 3.5, 24 μmol added) was 74.71% and the “percent of chloroquine loaded” value ([5]; pH 8.3) was 74.76% and 54.36% and 85.71%.

For `COc1cccc2c1C(=O)c1c(O)c3c(c(O)c1C2=O)C[C@@](O)(C(=O)CO)C[C@@H]3O[C@H]1C[C@H](N)[C@H](O)[C@H](C)O1` [doxorubicin], the loading efficiency ([6]; ammonium sulfate loading, drug precipitates as insoluble sulfate) is given as 99%.

With `O=C1CC[C@@]2(O)[C@H]3Cc4ccc(O)c5c4[C@@]2(CCN3CC2CC2)[C@H]1O5` [naltrexone, reference compound] the “Percent of Naltrexone Loaded” value ([5]; 0.2M nicotinamide sulfate, sodium citrate pH 7.0, 29.86 μmol added) was 86.28% and the loading efficiency ([5]; 1.5 M pyridinium sulfate liposomes, tris-chloride adjusted to pH 8.1, 50 μmol naltrexone) was 91.7%.

In the case of `CN1CC[C@]23c4c5ccc(O)c4O[C@H]2C(=O)CC[C@@]3(O)[C@H]1C5` [oxymorphone], the loading efficiency ([6]; ammonium sulfate gradient technique) is given as “approximately 35%”, the incorporation efficiency ([6]; dipalmitoylphosphatidylcholine and cholesterol) is given as 7% and the incorporation efficiency ([6]; egg phosphatidylcholine and cholesterol, passive aqueous capture) is given as 50%.

`c1ccncc1` [pyridine] showed a Capture [1, 7] of 0.718 mol/mol phospholipid, a Capture [1, 8] of 0.238 mol/mol phospholipid and a Capture [1, 9] of 0.0595 mol/mol phospholipid. The Capture [1, 10] was 0.869 mol/mol phospholipid, the “Pyridine Capture” value ([1]; volume 600 microliter) was 0.748 mol/mol and the “Pyridine Capture” value ([1]; volume 800 microliter) was 0.914 mol/mol. For the same compound, the “Pyridine Capture” value ([1]; volume 1000 microliter) was 1.057 mol/mol, the “Pyridine Capture” value ([1]; volume 1200 microliter) was 1.613 mol/mol and the “Pyridine Capture” value ([1]; volume 1400 microliter) was 1.457 mol/mol. For the same compound, the “Pyridine Capture” value ([1]; volume 1600 microliter) was 2.093 mol/mol, the “Pyridine Capture” value ([1]; volume 1800 microliter) was 1.565 mol/mol and the “Pyridine Capture” value ([1]; volume 2000 microliter) was 1.629 mol/mol. The Capture ([1]; lipid in 1-propanol, sulfate salt, first volume 100, second volume 400 microliter) was 1.71 mol/mol, the Capture [1, 11] was 1.41 mol/mol and the Capture [1, 12] was 1.16 mol/mol. It also gave a Capture [1, 13] of 1.05 mol/mol, a Capture [1, 14] of 1.72 mol/mol and a Capture [1, 15] of 1.93 mol/mol. The Capture [1, 16] was 1.59 mol/mol, the Capture ([1]; lipid in 2-butanol, sulfate salt, first volume 200, second volume 400 microliter) was 0.43 mol/mol and the Capture ([1]; lipid in 2-butanol, sulfate salt, first volume 300, second volume 300 microliter) was 0.49 mol/mol. For the same compound, the Capture ([1]; lipid in 2-butanol, sulfate salt, first volume 400, second volume 200 microliter) was 0.52 mol/mol, the Capture ([1]; lipid in 2-butanol, sulfate salt, first volume 500, second volume 100 microliter) was 0.39 mol/mol and the Capture ([1]; lipid in 2-butanol, sulfate salt, first volume 600, second volume 0 microliter) was 0.94 mol/mol. For the same compound, the Capture ([1]; lipid in 2-butanol, sulfate salt, first volume 700, second volume 0 microliter) was 1.44 mol/mol, the Capture [1, 18] was 2.26 mol/mol and the Capture ([1]; lipid in 2-butanol, sulfate salt, first volume 900, second volume 0 microliter) was 2.69 mol/mol. For the same compound, the Capture [1, 19] was 3.06 mol/mol, the Capture ([1]; lipid in 2-butanol, sulfate salt, first volume 1100, second volume 0 microliter) was 2.94 mol/mol and the Capture [1, 20] was 2.62 mol/mol. The Capture [1, 21] was 0.537 mol/mol, the Capture [1, 22] was 0.511 mol/mol and the Capture [1, 23] was 0.718 mol/mol. The Capture [1, 25] was 1.057 mol/mol, the Capture [1, 26] was 1.136 mol/mol and the Capture ([1]; lipid in 2-propanol, 58° C., 0.2M sulfate salt, first volume 450, second volume 50 microliter) was 1.012 mol/mol. It also gave a Capture ([1]; lipid in 2-propanol, 58° C., 0.2M sulfate salt, first volume 500, second volume 0 microliter) of 0.860 mol/mol, a Capture ([1]; lipid in t-butanol, 62° C., 0.2M sulfate salt, first volume 250, second volume 250 microliter) of 0.87 mol/mol and a Capture [1, 30] of 0.93 mol/mol. It also gave a Capture [1, 31] of 0.95 mol/mol, a Capture [1, 32] of 0.84 mol/mol and a Capture ([1]; lipid in t-butanol, 62° C., 0.2M sulfate salt, first volume 800, second volume 0 microliter) of 1.97 mol/mol. The Capture ([1]; lipid in t-butanol, 62° C., 0.2M sulfate salt, first volume 1000, second volume 0 microliter) was 0.13 mol/mol, the Capture ([1]; lipid in t-butanol, 62° C., 0.2M sulfate salt, first volume 1200, second volume 0 microliter) was 0.20 mol/mol and the Capture ([1]; lipid in t-butanol, 62° C., 0.2M sulfate salt, first volume 1400, second volume 0 microliter) was 0.17 mol/mol.

With `O=S(=O)(O)CCCS(=O)(=O)O.c1ccncc1.c1ccncc1` [pyridinium eprodisate] the “base content, solvent dilution” value ([1]; base salt concentration 0.2M) was 0.93 mol/mol, the percent naltrexone loaded ([3]; Experiment 1) was 85.6% and the percent naltrexone loaded ([3]; Experiment 2) was 84.2%.

Methanesulfonate gave a percent naltrexone loaded ([3]; Experiment 1) of 89.0% and a percent naltrexone loaded ([3]; Experiment 2) of 89.3%.
